Reference: PubChem BioAssay AID190 (DTP/NCI, 2004)
The list is a part of this screen's results and no random one: it is rich in T/C values a quarter to a half above the control, in often repeated tests (any T/C) and in doses without a T/C. Other doses and runs of a compound stand elsewhere. T/C is the treated group as % of the vehicle group. Some doses have a count of surviving animals in place of a T/C: the source holds a T/C of zero for them, seemingly a mark for toxic or unscored doses. Some doses without a T/C left all or most animals alive at the check, yet need not have been tolerated: survival well below the control is almost never listed, so the zero probably covers shortened survival too. Counts of survivors are from the toxicity check (mostly the fifth day) where no day follows; animals may have died later. Schedules are NCI's codes, read here as Q, the interval in days (D) or hours (H), X, the number of doses. Some entries hold several experiments; their values stand side by side, smallest first. Where survival is the endpoint, the PubChem record calls one and a half times the control and up active, and a quarter to a half above the control has no call in these data; cut-offs in other NCI protocols can differ. Some T/C values carry the count of animals alive at the toxicity check (mostly the fifth day); where none is given, no animal had died by that day. Signs of the kind (2×) say how often a value occurs here.

Tested on: AKR/Lw mice, AKR lymphoma ip, median survival T/C
Assay: NCI In Vivo Anticancer Drug Screen. Data for tumor model Lymphoma AKR (Transplanted) (intraperitoneal) in AKR/Lw mice
Conditions: T/C endpoint: median survival time, higher T/C = longer survival
Method: The antitumor activity of compounds was measured in mice bearing transplantable tumors. Survival or tumor size were measured and the results are expressed as the measurement made in the treated group (T) divided by the measurement made in the vehicle treated control group (C). The tumor model used in this assay is Lymphoma AKR (Transplanted) (intraperitoneal) in AKR/Lw mice

[1] = dose: 100.0 mg/kg/injection, schedule: Q04DX003 (ip), vehicle: other
[2] = dose: 200.0 mg/kg/injection, schedule: Q04DX003 (ip), vehicle: other
[3] = dose: 400.0 mg/kg/injection, schedule: Q04DX003 (ip), vehicle: other
[4] = dose: 6.25 mg/kg/injection, schedule: Q07DX003 (ip), vehicle: saline
[5] = dose: 15.0 mg/kg/injection, schedule: Q07DX003 (ip), vehicle: Klucel (hydroxypropylcellulose) (HPC)
[6] = dose: 20.0 mg/kg/injection, schedule: Q07DX003 (ip), vehicle: Klucel (hydroxypropylcellulose) (HPC)
[7] = dose: 25.0 mg/kg/injection, schedule: Q07DX003 (ip), vehicle: Klucel (hydroxypropylcellulose) (HPC)
[8] = dose: 30.0 mg/kg/injection, schedule: Q07DX003 (ip), vehicle: Klucel (hydroxypropylcellulose) (HPC)
[9] = dose: 50.0 mg/kg/injection, schedule: Q01DX001 (ip), vehicle: Klucel (hydroxypropylcellulose) (HPC)
[10] = dose: 50.0 mg/kg/injection, schedule: Q01DX001 (ip), vehicle: saline
[11] = dose: 75.0 mg/kg/injection, schedule: Q01DX001 (ip), vehicle: Klucel (hydroxypropylcellulose) (HPC)
[12] = dose: 100.0 mg/kg/injection, schedule: Q01DX001 (ip), vehicle: Klucel (hydroxypropylcellulose) (HPC)
[13] = dose: 100.0 mg/kg/injection, schedule: Q01DX001 (ip), vehicle: saline

SMILES: c1ccc2c(c1)OCCOCCOc1ccccc1OCCOCCO2
- survivor count [1]: 9 of 10
- survivor count [2]: 10 of 10
- survivor count [3]: 8 of 10

SMILES: O=NN(CCCl)C(=O)NC1CCCCC1
- T/C (dose: 5.0 mg/kg/injection, schedule: Q07DX003 (ip), vehicle: Klucel (hydroxypropylcellulose) (HPC)): 92, 97, 105, 113, 115, 120 % of control
- T/C [4]: 131 % of control
- survivor count [4]: 4 of 10
- T/C (dose: 10.0 mg/kg/injection, schedule: Q01DX001 (ip), vehicle: Klucel (hydroxypropylcellulose) (HPC), evaluated on day 5): 117 and 133 % of control
- T/C (dose: 10.0 mg/kg/injection, schedule: Q01DX001 (ip), vehicle: Klucel (hydroxypropylcellulose) (HPC), evaluated on day 60): 117 and 133 % of control
- T/C (dose: 10.0 mg/kg/injection, schedule: Q07DX003 (ip), vehicle: Klucel (hydroxypropylcellulose) (HPC)): 87, 102, 105, 107, 115, 117 % of control
- T/C (dose: 14.0 mg/kg/injection, schedule: Q01DX001 (ip), vehicle: Klucel (hydroxypropylcellulose) (HPC), evaluated on day 5): 138 % of control
- T/C (dose: 14.0 mg/kg/injection, schedule: Q01DX001 (ip), vehicle: Klucel (hydroxypropylcellulose) (HPC), evaluated on day 60): 138 % of control
- survivor count (dose: 15.0 mg/kg/injection, schedule: Q04DX004 (ip), vehicle: Klucel (hydroxypropylcellulose) (HPC)): 10 of 10
- T/C [5]: 95, 100, 110, 113, 152 % of control
- survivor count [5]: 10 of 10
- T/C (dose: 20.0 mg/kg/injection, schedule: Q01DX001 (ip), vehicle: Klucel (hydroxypropylcellulose) (HPC), evaluated on day 5): 110 and 113 % of control
- T/C (dose: 20.0 mg/kg/injection, schedule: Q01DX001 (ip), vehicle: Klucel (hydroxypropylcellulose) (HPC), evaluated on day 60): 96, 103, 108, 109 [7 of 10 alive], 110, 112, 113, 120 % of control
- survivor count (dose: 20.0 mg/kg/injection, schedule: Q04DX004 (ip), vehicle: Klucel (hydroxypropylcellulose) (HPC)): 10 of 10
- T/C [6]: 102 [9 of 10 alive], 107 (2×), 113, 118 % of control
- survivor count [6]: 10 of 10
- T/C (dose: 25.0 mg/kg/injection, schedule: Q01DX001 (ip), vehicle: saline): 128 % of control
- T/C [7]: 100, 105, 115, 117, 126 % of control
- survivor count [7]: 10 of 10
- T/C (dose: 25.0 mg/kg/injection, schedule: Q07DX003 (ip), vehicle: saline): 128 % of control
- T/C (dose: 27.0 mg/kg/injection, schedule: Q01DX001 (ip), vehicle: Klucel (hydroxypropylcellulose) (HPC), evaluated on day 5): 140 % of control
- T/C (dose: 27.0 mg/kg/injection, schedule: Q01DX001 (ip), vehicle: Klucel (hydroxypropylcellulose) (HPC), evaluated on day 60): 140 % of control
- T/C (dose: 30.0 mg/kg/injection, schedule: Q01DX001 (ip), vehicle: Klucel (hydroxypropylcellulose) (HPC), evaluated on day 5): 133 % of control
- T/C (dose: 30.0 mg/kg/injection, schedule: Q01DX001 (ip), vehicle: Klucel (hydroxypropylcellulose) (HPC), evaluated on day 60): 100 [7 of 10 alive], 112 [9 of 10 alive], 116, 120, 125, 133 % of control
- survivor count (dose: 30.0 mg/kg/injection, schedule: Q01DX001 (ip), vehicle: Klucel (hydroxypropylcellulose) (HPC)): 10 of 10
- T/C [8]: 100, 107, 110, 115, 144 % of control
- survivor count [8]: 10 of 10
- T/C (dose: 40.0 mg/kg/injection, schedule: Q01DX001 (ip), vehicle: Klucel (hydroxypropylcellulose) (HPC), evaluated on day 5): 78 % of control
- T/C (dose: 40.0 mg/kg/injection, schedule: Q01DX001 (ip), vehicle: Klucel (hydroxypropylcellulose) (HPC), evaluated on day 60): 90, 108, 112, 125, 141 % of control
- survivor count (dose: 40.0 mg/kg/injection, schedule: Q01DX001 (ip), vehicle: Klucel (hydroxypropylcellulose) (HPC)): 6 of 10 and 7 of 10
- survivor count (dose: 40.0 mg/kg/injection, schedule: Q04DX004 (ip), vehicle: Klucel (hydroxypropylcellulose) (HPC)): 10 of 10
- T/C [9]: 90 [9 of 10 alive], 96 [9 of 10 alive], 104, 120, 141 % of control
- survivor count [9]: 6 of 10
- T/C [10]: 128 % of control
- survivor count [10]: 9 of 10
- T/C [11]: 108, 116 [8 of 10 alive], 120 % of control
- survivor count [11]: 4 of 10, 7 of 10, 9 of 10
- T/C [12]: 108, 125, 133 % of control
- survivor count [12]: 2 of 10, 4 of 10, 6 of 10
- T/C [13]: 125 [9 of 10 alive] and 140 % of control [8 of 10 alive]
- survivor count [13]: 7 of 10
- survivor count (dose: 200.0 mg/kg/injection, schedule: Q01DX001 (ip), vehicle: saline with Tween-80): 8 of 10

SMILES: ClC1=C(Cl)C2(Cl)C(COc3ccc(Cl)cc3)CC1(Cl)C2(Cl)Cl (stereo not drawn)
- survivor count [1]: 10 of 10
- survivor count [2]: 10 of 10
- survivor count [3]: 10 of 10
